This note sets out measurements from publication PMC6804113 (Molecules, 2019).

Strings that start with PEPTIDE1 are HELM notation: dots part the residues, brackets hold end groups and non-standard residues. Positions of bridges follow the written chain, without caps; N, C: chain ends. Non-standard residues stand in square brackets, D forms with d. No end group written: not given here.

A short description of this data set: general procedure: Fmoc solid-phase peptide synthesis; Wang resin (peptides 2, 4-8, 10) or (CAM)-2-chlorotrityl resin (peptides 1, 3, 9); DIPCDI/HOBt. The note with it: cyclisation step, on linear purified peptide.
Consider LSC[dQ]LYCR (disulfide 3-7), for which the cyclisation yield came to 29%.

The substance “PEPTIDE1{L.C.P.Q.L.Y.Q.C}$PEPTIDE1,PEPTIDE1,2:R3-8:R3$$$V2.0” showed a cyclisation yield of 22%.

Turning to “PEPTIDE1{L.S.C.[dQ].L.Y.Q.C}$PEPTIDE1,PEPTIDE1,3:R3-8:R3$$$V2.0”, the cyclisation yield was 18%.

For the substance “PEPTIDE1{L.S.C.[dQ].L.Y.Q.R.[CAM]}$PEPTIDE1,PEPTIDE1,3:R3-9:R3$$$V2.0”, the cyclisation yield amounted to 13%.

“PEPTIDE1{L.C.P.Q.L.C.Q.R}$PEPTIDE1,PEPTIDE1,2:R3-6:R3$$$V2.0” came in with a cyclisation yield of 25%.

As to “PEPTIDE1{L.C.P.Q.L.Y.C.R}$PEPTIDE1,PEPTIDE1,2:R3-7:R3$$$V2.0”, the cyclisation yield is 18%.

Turning to “PEPTIDE1{C.S.P.Q.L.Y.Q.C}$PEPTIDE1,PEPTIDE1,1:R3-8:R3$$$V2.0”, the cyclisation yield worked out at 25%.

As to “PEPTIDE1{L.C.A.Q.L.Y.Q.C}$PEPTIDE1,PEPTIDE1,2:R3-8:R3$$$V2.0”, the cyclisation yield was 30%.

The substance “PEPTIDE1{L.S.C.Q.L.Y.Q.R.[CAM]}$PEPTIDE1,PEPTIDE1,3:R3-9:R3$$$V2.0” had a cyclisation yield of 15%.

Consider Leu-c[Cys-Pro-Gln-Leu-Tyr-Gln-Arg-CAM], for which the cyclisation yield is 10%.
